This is an account of results in publication PMC12040169 (PLOS Biology, 2025).

The list shows a part of the results.

The subject of the assay is T1, CTL2-GFP (C. trachomatis L2/434/Bu, GFP-expressing).
T1 construct: L2/434/Bu, GFP-expressing
Also on record: species or system HeLa; Intracellular C. trachomatis growth in HeLa cells, bulk GFP fluorescence relative to DMSO. As to conditions: bulk GFP, single well; 28.5 h, 10 µM; inhibitor.
Regarding `COC(=O)c1ccc(C2N(Cc3ccccc3)CCN2Cc2ccccc2)cc1` [CBK265201], the “% of control remaining” value is recorded as 100%.

Consider `Fc1ccc(CN2C3CCCC2CC(NC(=S)NC2CCCCC2)C3)cc1` (stereo not drawn) [CBK121172], for which the “% of control remaining” value turned out to be 128.344%.

In the case of `N#CCCn1cc(C(=O)N2CCOCC2)c(-c2ccc(F)cc2)n1` [CBK306189], the “% of control remaining” value came out at 106.355%.

Regarding `CS(=O)(=O)Nc1cc2ccccc2c(-c2ccsc2)n1` [CBK085748], the “% of control remaining” value was determined as 147.707%.

For the molecule `Cc1c(-c2ccc(Cl)cc2Cl)nc2ccccc2c1C(=O)NCc1ccc(S(N)(=O)=O)cc1` [CBK265387], the “% of control remaining” value came to 110.493%.

`Cc1ccc(C2=CCN(C(=O)c3cccc(S(=O)(=O)N(C)C)c3)CC2)cc1` [CBK298273]: the “% of control remaining” value is listed as 101.381%.

For `CC1(c2ccc(Br)cc2)NC(=O)CS1` (stereo not drawn) [CBK018962], the “% of control remaining” value came to 120.71%.

Take `NC(=O)C(NCc1ccccc1)c1ccc(Cl)cc1` (stereo not drawn) [CBK012748]: the “% of control remaining” value is listed as 127.021%.

As for `C=Cn1ncc(CN2CCC(O)(c3ccccc3C)CC2)c1C` [CBK282582], the “% of control remaining” value is given as 101.219%.

For the molecule `Cn1c(COc2ccc(Cl)cc2Cl)nnc1SCC(=O)N1c2ccccc2SC2C=CC=CC21` (stereo not drawn) [CBK268359], the “% of control remaining” value is 158.907%.

In the case of `O=S(=O)(c1ccc(-c2ccccc2)cc1)N1CCCN(Cc2cccc(F)c2F)CC1` [CBK063111], the “% of control remaining” value was determined as 100.318%.

Turning to `COc1cc(C)c(NC(=O)c2cnc(-c3ccc(F)cc3)c(-c3ccncc3)c2)cc1OC` [CBK036575], the “% of control remaining” value is 115.035%.

With `COC(=O)C1(Cc2ccccc2-c2ccncc2)CCOCC1` [CBK284709], the “% of control remaining” value is listed as 126.399%.

As to `O=C(CCS(=O)(=O)c1cc(Cl)ccc1Cl)OCC(=O)c1ccccc1` [CBK261256], the “% of control remaining” value amounted to 100%.

As to `COc1cccc(C(=O)Nc2ccc(O)cc2C(=O)O)c1` [CBK268662], the “% of control remaining” value was determined as 112.94%.

With `Cc1cn(CC(=O)N2CCN(c3ncccn3)CC2)c(=O)[nH]c1=O` [CBK144513], the “% of control remaining” value worked out at 121.2%.

Regarding `O=C(NCCCn1ccnc1)c1cccs1` [CBK261740], the “% of control remaining” value is 99.4947%.

For `O=C(O)C1CCN(C2CC(=O)N(Cc3ccccc3)C2=O)CC1` (stereo not drawn) [CBK287206], the “% of control remaining” value is 127.609%.

As to `O=C(O)CCC(=O)N1N=C2C(=Cc3ccco3)CCCC2C1c1ccco1` (stereo not drawn) [CBK296069], the “% of control remaining” value was found to be 123.658%.

`COc1ccccc1CC(=O)Nc1ccc(OCC(=O)O)cc1` [CBK264194]: the “% of control remaining” value is recorded as 126.805%.

Take `C=CCn1c(Cc2csc(NC(=O)c3ccc(OC)c(OC)c3)n2)n[nH]c1=S` [CBK295324]: the “% of control remaining” value is listed as 180.016%.

For `Cc1nccc(-c2cccc(NC3CCN(c4ccc5c(c4)OCCO5)CC3)c2)n1` [CBK286439], the “% of control remaining” value was 113.977%.

With `O=C(NCc1ccco1)[C@@H]1C=CCN1C(=O)NCc1ccccc1` [CBK284293], the “% of control remaining” value is on record as 135.934%.

Regarding `CCOC(=O)c1sc2ncccc2c1N` [CBK115371], the “% of control remaining” value turned out to be 111.239%.

For `Cc1cccc(N2CCN(C(=O)C3C4CCC(O4)C3C(=O)O)CC2)c1C` (stereo not drawn) [CBK287044], the “% of control remaining” value was 131.482%.

`Nc1ncc(-c2cccc(CO)c2)nc1N1CCOCC1` [CBK063406]: the “% of control remaining” value came to 209.208%.

`COC(=O)c1ccc2c(=O)n(CC(C)C)c(SC)nc2c1` [CBK306042]: the “% of control remaining” value was 148.469%.

Turning to `O=C(CS(=O)(=O)c1ccccc1)Nc1cccc2nsnc12` [CBK267949], the “% of control remaining” value is 127.243%.

For `Oc1cc(C(F)(F)F)nc(N2CCCC2)n1` [CBK002389], the “% of control remaining” value is recorded as 116.515%.

For the molecule `CCn1nc(C)c(-c2cncn2CCN(C)C2CCCC2)c1C` [CBK281569], the “% of control remaining” value is 93.6933%.

As for `CCC1CCCCN1C(=O)c1cccc(C)c1C` (stereo not drawn) [CBK081501], the “% of control remaining” value turned out to be 152.692%.

In the case of `OCC1CCCN1c1nccnc1-c1ccccc1F` (stereo not drawn) [CBK038037], the “% of control remaining” value was found to be 95.5194%.

In the case of `O=C(O)/C=C/C(=O)NCCc1c[nH]c2ccccc12` [CBK287222], the “% of control remaining” value was 112.42%.

With `Cc1ccc2cc(CN(CCNC(=O)OC(C)(C)C)C(=O)NCc3ccccc3)c(=O)[nH]c2c1C` [CBK132097], the “% of control remaining” value came out at 99.0205%.

Consider `Cn1c(C(O)c2ccccc2)n[nH]c1=S` (stereo not drawn) [CBK012984], for which the “% of control remaining” value is listed as 96.1671%.

Take `Cc1nn(CCS(C)(=O)=O)c(C)c1CN1CCOC(c2ccccc2)C1` (stereo not drawn) [CBK306162]: the “% of control remaining” value is given as 139.533%.

Turning to `O=C(O)c1cc(-c2ccc(/C=C3\NC(=O)N(Cc4ccccc4)C3=O)o2)ccc1Cl` [CBK078117], the “% of control remaining” value stood at 115.092%.

Take `CS(=O)(=O)N1CCc2cc(-c3cn4ccccc4n3)ccc21` [CBK285190]: the “% of control remaining” value turned out to be 128.23%.

Consider `Cn1cnc([N+](=O)[O-])c1Oc1ccccc1OCc1ccccc1` [CBK002747], for which the “% of control remaining” value stood at 96.1947%.

Turning to `O=C(CC(NC1CCCC1)C(=O)O)Nc1cccc(Cl)c1` (stereo not drawn) [CBK266831], the “% of control remaining” value stood at 177.445%.

Take `O=C(NC(=S)N1CCN(CCN2C(=O)c3cccc4cccc(c34)C2=O)CC1)c1ccc2c(c1)OCO2` [CBK263577]: the “% of control remaining” value is recorded as 100%.

Consider `CC(NC(=O)C1CC(=O)OC1(C)C)c1ccc2c(c1)CCCO2` (stereo not drawn) [CBK281613], for which the “% of control remaining” value turned out to be 148.536%.

With `CCOc1ccc(-c2nc(C#N)c(NCCN3CCOCC3)o2)cc1` [CBK265867], the “% of control remaining” value was determined as 102.804%.

Consider `Cc1ccc2oc(=O)cc(N/N=C(\Cl)C(N)=S)c2c1` [CBK022357], for which the “% of control remaining” value is given as 104.315%.

With `O=C(O)CN(CC(=O)Nc1ccc(Cl)cc1)Cc1ccccc1` [CBK286585], the “% of control remaining” value is recorded as 107.789%.

As to `CC1=NN(c2cccc(S(=O)(=O)O)c2C(=O)Nc2ccccc2)C(=O)C1` [CBK017343], the “% of control remaining” value is reported as 88.7999%.

Take `Cc1ccc(Cl)cc1NC(=O)CC1NCCNC1=O` (stereo not drawn) [CBK267246]: the “% of control remaining” value is on record as 125.733%.

`Cn1c(COc2ccccc2Cl)nnc1SCC(=O)N1c2ccccc2Sc2ccccc21` [CBK266001]: the “% of control remaining” value came out at 154.311%.

As to `Nc1ccc2c(-c3ccc(OC(F)(F)F)cc3)ccnc2n1` [CBK067649], the “% of control remaining” value is recorded as 100.278%.

With `CCCn1c(CN2CCOCC2)nc2c1c(=O)n(C)c(=O)n2C` [CBK305911], the “% of control remaining” value is on record as 90.3276%.

`COCC(=O)N1CCc2sccc2C1c1ccc(NCc2ccc(F)cc2F)cc1` (stereo not drawn) [CBK286460]: the “% of control remaining” value was determined as 121.471%.

As to `Cc1cccc2c3c([nH]c12)C1(CCCN(CCc2ccc([N+](=O)[O-])cc2)C1)NCC3` (stereo not drawn) [CBK039558], the “% of control remaining” value came out at 91.3118%.

For `CCN(CC)CCCNC(=O)N(CCC#N)C1CCCCC1` [CBK156377], the “% of control remaining” value was found to be 83.8579%.

As to `CC1CCc2c(sc(NC(=O)c3cccs3)c2C(=O)N2CCOCC2)C1` (stereo not drawn) [CBK307101], the “% of control remaining” value amounted to 116.677%.

Turning to `O=C(Nc1ccccc1Oc1ccc(F)cc1)c1ccc(Cn2cncn2)cc1` [CBK285587], the “% of control remaining” value stood at 82.006%.

In the case of `Nc1cccc(-c2nc(-c3cccnc3)cnc2N)c1` [CBK063906], the “% of control remaining” value was found to be 113.019%.

With `O=C(CSc1ccc(-c2ccncc2)nn1)Nc1ccc(F)cc1` [CBK287297], the “% of control remaining” value was found to be 118.603%.

On to `COc1ccc(C2=NN(c3ccc([N+](=O)[O-])cc3)C(=O)/C2=C\NCCN2CCOCC2)cc1` [CBK264563], for which the “% of control remaining” value was found to be 127.43%.

In the case of `COc1ccccc1NC(=O)c1c(NC(=O)Cc2ccccc2)sc2c1CCC(C(C)(C)C)C2` (stereo not drawn) [CBK264102], the “% of control remaining” value is 99.3213%.

Consider `COCCNC(=O)C(C)SCc1ccccc1` (stereo not drawn) [CBK028889], for which the “% of control remaining” value was 105.255%.

Consider `CCN(CC)C(=O)c1[nH]c2ccccc2c1NS(=O)(=O)c1ccc(C(F)(F)F)cc1[N+](=O)[O-]` [CBK050109], for which the “% of control remaining” value stood at 102.234%.

For the molecule `O=S(=O)(c1ccc2c(c1)nc1n2CCC1)N1CCOCC1` [CBK019200], the “% of control remaining” value is on record as 145.731%.

As to `Cc1ccc(NS(=O)(=O)c2cc(C(=O)N3CCN(Cc4ccc5c(c4)OCO5)CC3)ccc2C)cc1` [CBK268521], the “% of control remaining” value came out at 82.6557%.

Turning to `c1cnc2c(c1)cc([C@H]1CCCO1)n2CCN1CCCC1` [CBK282289], the “% of control remaining” value is 119.494%.

With `Cn1cncc1C(=O)N1CCc2ccccc21` [CBK200412], the “% of control remaining” value came out at 102.531%.

In the case of `Cc1c(OCc2ccccc2)ccc2c1OC1(CCN(C(=O)c3ccsc3)CC1)CC2=O` [CBK156445], the “% of control remaining” value is listed as 82.587%.

As to `c1cc2[nH]ccc2c(N2CCNCC2)n1` [CBK051673C], the “% of control remaining” value is on record as 111.494%.

`Cc1ccccc1Sc1cccc(C(F)(F)F)n1` [CBK115243]: the “% of control remaining” value is reported as 136.37%.

`Cc1c(S(=O)(=O)N2CCC(N)C2)sc2ccc(Cl)cc12` (stereo not drawn) [CBK164970]: the “% of control remaining” value is 77.6249%.

Take `Cc1ccc2c(c1)CC(=O)NC21CCN(CCc2noc3ccccc23)CC1` [CBK081072]: the “% of control remaining” value was determined as 124.577%.

In the case of `O=C(c1ccc(F)cc1F)N1CCC(O)(c2ccccn2)CC1` [CBK283671], the “% of control remaining” value was 87.5664%.

As for `CCCc1ccc(S(=O)(=O)N2CCOC(c3cnn(CC)c3)C2)cc1` (stereo not drawn) [CBK306169], the “% of control remaining” value was determined as 120.761%.

For `Cc1c(Cl)cccc1NC(=O)CSc1nccn1C` [CBK270297], the “% of control remaining” value is 134.412%.

`Cc1sc2nc(C3CC3)n(C3CCNCC3)c(=O)c2c1C` [CBK284228]: the “% of control remaining” value came to 141.697%.

Regarding `FC(F)(F)c1ccnc(OC2CCNCC2)n1` [CBK113294], the “% of control remaining” value is on record as 142.671%.

Turning to `Cc1nn(-c2ccccc2)c(Cl)c1CN1C(=O)NC2(CCCC2)C1=O` [CBK305070], the “% of control remaining” value is 104.616%.

As to `O=C(c1cccnc1)N1CCN(c2ncccn2)CC1` [CBK144516], the “% of control remaining” value is 111.677%.

As to `COc1ccc2[nH]cc(CCNC(=O)c3ccc(Cl)c(Cl)c3)c2c1` [CBK115870], the “% of control remaining” value is recorded as 14.1597%.

For the molecule `Cc1cccc(-c2ncc(NC(=O)c3cccc(N(C)C)c3)nc2-c2ccco2)c1` [CBK036654], the “% of control remaining” value is recorded as 130.543%.

Take `CC(Oc1ccc(S(=O)(=O)N2CCN(C)CC2)cc1)C(=O)NC1CCCCC1` (stereo not drawn) [CBK269943]: the “% of control remaining” value was 86.8298%.

Regarding `Cc1csc2c(N3CCC(NCCc4ccnn4C)CC3)ncnc12` [CBK307515], the “% of control remaining” value is reported as 92.1851%.
